Measured values reported in publication PMC7948466.
The exact form of at least one protein or probe is not confirmed. For some assays here: At least one verdict rests on a figure or table, not on a statement of the authors.

Columns and labels:
[1] = biological target: DNMT3A full length (Homo sapiens) (UniProt Q9Y6K1); assay: fluorescence anisotropy; conditions: DNMT3A titrated to 15 nM DNA, no mononucleosomes; Fluorescence anisotropy (ex 485 nm, em 520 nm), 5 min incubation at room temperature; binding buffer; recombinant protein; residues 1-912; label: 5' 6-FAM on top strand
[2] = tested on: DNMT3A full length + human mononucleosome (unmodified); assay: fluorescence anisotropy; conditions: preformed DNMT3A-mononucleosome complex titrated to 15 nM DNA, larger FA change than DNMT3A only; Fluorescence anisotropy (ex 485 nm, em 520 nm), 5 min incubation at room temperature; binding buffer; recombinant protein; label: 5' 6-FAM on top strand

Question: Does “TGGATATCTAGGGGCGCTATGATATCT (double strand) [GCbox30]” bind [1]?
Answer: binds

Question: Does “TGGATATCTAGGGGCGCTATGATATCT (double strand) [GCbox30]” bind [2]?
Answer: binds
